This is one part of the list. These are further read-outs of the screen, such as a control signal, another cell line or another target. No call is given for them. Most of these compounds were active or inconclusive in the main read-out, so they are no random draw. Words in brackets tell the shape of the fitted curve; partial curves, single points and poor fits give uncertain potencies.
Test: qHTS Assay to Find Inhibitors of Chronic Active B-Cell Receptor Signaling
Conditions: ABC-DLBCL IkBa-CBG/CBR reporter, luminescence ratio (green luciferase fused to IkBa over red control in TMD8 lymphoma cells), 4 h
In short: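 Compounds up to 46 uM were incubated four hours with TMD8 cells whose green CBG68 luciferase is fused to IkappaBalpha; red CBR luminescence normalised the signal, and concentration-effect curves were fitted to fusion, red and ratio data.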

[1] = measured here: CBR red luminescence, cell number
[2] = measured here: IkBa-CBG green luminescence

Compound	AC50 [1]	AC50 [2]
COc1ccc(NC(=O)n2nc(OC(=O)c3cccs3)cc2N)cc1	8.91 µM [falling, partial curve]	
O=S(=O)(CCSc1nc2ccccc2o1)c1nc2ccccc2s1	29.1 µM [falling, single point]	18.4 µM [rising, partial curve, poor fit]
CCN(CC)C(=O)[C@H]1CC(CC(=O)NCCC2=CCCCC2)C(=O)N2CCc3c([nH]c4ccccc34)[C@]12C (some centres not stated)	18.4 µM [falling, partial curve, poor fit]	
COc1cc(C(C)=O)ccc1Oc1ncnc2c1cnn2-c1ccc(F)cc1	6.51 µM [rising, partial curve]	
CCn1c(SCC(=O)Nc2cc(OC)ccc2OC)nnc1C1CCCCC1	14.6 µM [falling, partial curve, poor fit]	
O=C(NCCO)C1(c2ccccc2)CCCC1	18.4 µM [rising, single point]	
CCOc1cc(NC(=O)Nc2ccccc2)c(OCC)cc1NC(=O)CC	3.16 µM [rising, full curve, poor fit]	
CCCCNC(=O)C1(O)c2ccccc2NC(=O)N1c1ccc(Cl)cc1 (configuration not stated)	12.6 µM [rising, partial curve]	
Cc1ccc(-c2nc3c4ccccc4ccn3c2CN2CCCCC2)cc1	17.8 µM [rising, partial curve, poor fit]	
O=C(C[n+]1cc(Br)cc2ccccc21)c1ccc(F)cc1	10 µM [falling, partial curve, poor fit]	
Cc1ccc(CN2C(=O)N/C(=C/c3ccc(-c4ccc(C(=O)O)cc4)o3)C2=O)cc1	11.2 µM [falling, partial curve]	
COc1ccc(/C=N/n2c(SC)nnc2-c2ccccc2)c(OC)c1OC		12.6 µM [falling, single point]
Cn1cnc([N+](=O)[O-])c1Sc1ccc(Br)cc1	13 µM [falling, partial curve, poor fit]	
COc1ccc(C(=O)C2CCN(C(=S)NCC3CCCO3)CC2)cc1 (configuration not stated)	1.12 µM [rising, single point]	
COc1ccc(OC)c(CNC(=O)Cc2c(C(=O)O)[nH]c3ccc(Cl)cc23)c1	2.82 µM [falling, partial curve, poor fit]	
O=C(Nc1ccccc1)c1nc[nH]c1C(=O)NCCCNC(=O)c1[nH]cnc1C(=O)Nc1ccccc1	1.64 µM [rising, partial curve, poor fit]	
COc1ccc(NS(=O)(=O)c2cc(NC(=O)c3cccs3)ccc2N2CCCC2)cc1	5.17 µM [falling, full curve]	
CCCCN(CC)CCNC(=S)Nc1ccc2nc(N3CCN(C)CC3)cc(C)c2c1	22.4 µM [falling, single point]	
S=c1[nH]nc(-c2ccco2)n1/N=C/C(Cl)=C/c1ccccc1	10 µM [falling, partial curve, poor fit]	35.5 µM [falling, partial curve, poor fit]
COc1ccc(C(=O)OCC(=O)NC(=O)NC2CCCC2)cc1OC	16.4 µM [falling, single point]	

Quoted from the listing, 2 compounds:
Compound	AC50 [1]	AC50 [2]
COc1ccc(C(=O)C2CCN(C(=S)NCC3CCCO3)CC2)cc1 (configuration not stated)	1.12 µM [rising, single point]	
COc1ccc(OC)c(CNC(=O)Cc2c(C(=O)O)[nH]c3ccc(Cl)cc23)c1	2.82 µM [falling, partial curve, poor fit]	

Later entries.

Compound	AC50 [1]	AC50 [2]
O=C(NCCCN1CCOCC1)c1ccccc1NS(=O)(=O)c1ccc(F)cc1	0.794 µM [rising, full curve, poor fit]	
COc1ccc(/C=C2/SC(=O)N(NS(=O)(=O)c3ccccc3)C2=S)cc1OC	29.1 µM [rising, partial curve, poor fit]	
CN(C)S(=O)(=O)c1cccc(C(=O)NCC(C)(C)CNC(=O)c2cccc(S(=O)(=O)N(C)C)c2)c1	2.51 µM [falling, partial curve, poor fit]	
COc1ccc(-c2cc3cc4c(cc3cn2)OCO4)cc1	29.1 µM [rising, single point]	
Cc1ccc(SCC(=O)NNC(=O)CCS(=O)(=O)c2ccccc2)cc1	18.4 µM [rising, partial curve, poor fit]	
CCCCN(C)CCC(=O)Nc1ccc2c(c1)CCC2	25.1 µM [falling, single point]	
Cc1ccc(S(=O)(=O)CC(=O)N(C)C)cc1	5.8 µM [rising, single point]	
COC(=O)c1c(NC(=O)C(=O)N2CCCCC2)sc2c1CC(C)(C)OC2	11.2 µM [rising, partial curve]	
COc1ccc2nc(NC(=O)c3ccc4ncsc4c3)sc2c1	2.59 µM [falling, partial curve]	
COC(=O)/C=C1\S/C(=N/NC(=O)c2ccccc2)NC1=O	0.366 µM [falling, full curve]	
COc1ccc(-c2nc(N3CCC(C)CC3)[nH]c(=O)c2C#N)cc1	0.00461 µM [rising, full curve, poor fit]	
O=C(CSc1nn(-c2ccccc2)c(=S)s1)Nc1ncccn1	2.82 µM [rising, full curve]	
CSc1ccc(CN2CCN(C(=O)c3ccc([N+](=O)[O-])cc3)CC2)cc1	1 µM [falling, full curve]	
Clc1cccc(CN2CCCCCCC2)c1Cl	13 µM [rising, partial curve]	
COc1cccc(NC(=O)c2ccc3c(c2)N(CC(=O)N2CCOCC2)C(=O)C(C)(C)O3)c1	5.62 µM [rising, single point]	
CCC1=NN2C(=N)/C(=C\c3cccn3-c3cccc(Cl)c3)C(=O)N=C2S1	0.447 µM [rising, full curve]	
O=C(CCNS(=O)(=O)c1ccc(Br)cc1)NC1CCC(O)CC1 (configuration not stated)	29.1 µM [rising, single point]	
Cc1sc(C2C(C#N)=C(N)N(c3ccc(Cl)cc3)C3=C2C(=O)CCC3)cc1CN1CCOCC1 (configuration not stated)	6.31 µM [rising, partial curve, poor fit]	
COc1ccc(C(C(=O)NC2CCCC2)N(Cc2ccccc2)C(=O)c2nsc(Cl)c2Cl)cc1 (configuration not stated)	20.6 µM [falling, single point]	
CC[C@]12c3[nH]c4ccccc4c3CCN1C(=O)C(CC(=O)NC/C=C(\C)CCC=C(C)C)C[C@@H]2C(=O)N1CCN(C(=O)c2ccco2)CC1 (some centres not stated)	29.1 µM [falling, single point]	

— PubChem BioAssay AID493014 (National Center for Advancing Translational Sciences (NCATS), 2011)
